Measurements from paper PMC9866339, “In Silico and In Vitro Study of Janus Kinases Inhibitors from Naphthoquinones” (Molecules, 2023).

Key:
TF1 cells [1] = conditions: at IC50, 24 h, dot plot quadrant
TF1 cells [2] = conditions: for Total apoptotic cells, annexin V: 24-h treatment, at IC50; for Dead cells, annexin V / Early Apop. cells, annexin V / Late Apop./Dead cells, annexin V: at IC50, 24 h, dot plot quadrant
TF1 cells [3] = assay: Presto Blue cytotoxicity assay on TF1 cells; type: cell-based; conditions: Homo sapiens, TF-1, 72 h, mean ± SEM, read-out: IC50 against TF1 cell viability
Method: The human erythroleukemia TF1 (ATCC CRL-2003) and HEL 92.1.7 (ATCC TIB-180) cells, which purchase from ATCC were grown in complete RPMI-1640 medium supplemented with fetal bovine serum (FBS, 10% v/v), 100 U/mL penicillin, and 100 μg/mL streptomycin. To the complete RPMI-1640 medium for TF1 cells was added 2 ng/mL of granulocyte-macrophage colony-stimulating factor (GM-CSF). Both cells were maintained at 37 °C in a 5% (v/v) CO2, 95% (v/v) air-humidified incubator.
The cytotoxicity activity of naphthoquinones against both TF1 and HEL cells was performed using the Presto Blue assay. The TF1 (50,000 cells/well) and HEL (25,000 cells/well) cell suspensions were seeded in a 96-well microplate and incubated overnight at 37 °C. […] The absorbance of the resorufin product was measured at 570 nm using a microplate reader (Infinite M200 microplate reader, Tecan, Männedorf, Switzerland) after adding 10 μL of Presto Blue reagent in TF1 and HEL cells, which incubated at 37 °C for 1 h. The treatment without compounds/known drugs was used as vehicle control.

HEL cells = assay: Presto Blue cytotoxicity assay on HEL cells; type: cell-based; conditions: Homo sapiens, 72 h, mean ± SEM, read-out: IC50 against HEL cell viability

## CCC(=O)c1cc2c(o1)C(=O)c1ccccc1C2=O [2′-methyl napabucasin]
TF1 cells [1]
  Apoptotic cells, caspase 3/7: 4.85%
  Apoptotic/Dead cells, caspase 3/7: 2.30%
  Dead cells, caspase 3/7: 1.55%
TF1 cells [2]
  Total apoptotic cells, annexin V: ~ 40%
  Dead cells, annexin V: 0.55%
  Early Apop. cells, annexin V: 29.15%
  Late Apop./Dead cells, annexin V: 4.00%

## C[C@@H]1CCN(C(=O)CC#N)C[C@@H]1N(C)c1ncnc2[nH]ccc12 [Tofacitinib, tofacitinib, reference compound]
TF1 cells [3]
  IC50: 23.3 ± 1.37 µM
HEL cells
  IC50: 24.2 ± 0.67 µM

## CC(=O)c1cc2c(o1)C(=O)c1ccccc1C2=O [Napabucasin, napabucasin]
TF1 cells [1]
  Apoptotic cells, caspase 3/7: 4.70%
  Apoptotic/Dead cells, caspase 3/7: 1.45%
  Dead cells, caspase 3/7: 1.60%
TF1 cells [2]
  Total apoptotic cells, annexin V: ~ 40%
  Dead cells, annexin V: 1.35%
  Early Apop. cells, annexin V: 23.90%
  Late Apop./Dead cells, annexin V: 3.70%
